Source: the supplement of paper PMC3334620
Over roughly 33,000 sequences, “E-score (-0.5 to 0.5)” has its median near -0.016; the highest 2% begin near 0.3. The list shows a part of the results.

Molecular target: T1, Yer184c (UniProt P39961)
T1 sequence: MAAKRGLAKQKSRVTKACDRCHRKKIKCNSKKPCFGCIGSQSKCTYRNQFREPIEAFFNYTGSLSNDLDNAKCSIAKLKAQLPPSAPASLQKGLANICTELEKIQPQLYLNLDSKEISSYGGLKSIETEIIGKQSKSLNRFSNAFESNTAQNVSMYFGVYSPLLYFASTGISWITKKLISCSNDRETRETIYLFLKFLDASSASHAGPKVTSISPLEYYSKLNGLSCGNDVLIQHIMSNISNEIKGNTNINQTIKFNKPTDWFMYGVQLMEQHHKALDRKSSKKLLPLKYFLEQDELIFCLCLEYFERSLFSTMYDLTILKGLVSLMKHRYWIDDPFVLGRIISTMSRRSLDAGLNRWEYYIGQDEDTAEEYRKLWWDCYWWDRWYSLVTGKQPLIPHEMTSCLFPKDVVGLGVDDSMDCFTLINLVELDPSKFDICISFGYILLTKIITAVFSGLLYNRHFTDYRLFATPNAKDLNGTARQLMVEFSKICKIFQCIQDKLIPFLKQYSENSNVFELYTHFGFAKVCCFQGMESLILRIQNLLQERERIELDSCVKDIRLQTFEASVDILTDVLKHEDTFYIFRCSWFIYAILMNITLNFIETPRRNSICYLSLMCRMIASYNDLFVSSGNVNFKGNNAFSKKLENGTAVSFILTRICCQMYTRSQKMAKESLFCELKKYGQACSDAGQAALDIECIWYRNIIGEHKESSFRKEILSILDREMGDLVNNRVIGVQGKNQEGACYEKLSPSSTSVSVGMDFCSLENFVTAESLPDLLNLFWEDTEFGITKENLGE
Assay: PBM E-score (8-mer binding enrichment) (E-score (-0.5 to 0.5)); higher = stronger / more preferred TF binding
Conditions: protein concentration: 100 nM; construct: GST-full length
Procedure: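 Universal 'all 10-mer' protein binding microarrays (Agilent AMADID 015681) probed with GST-tagged S. cerevisiae TFs (full-length or DBD) made by in vitro transcription/translation (PURExpress), about 100-200 nM. Bound TF was detected with fluorescent anti-GST. Each ungapped 8-mer (which stands for itself and its reverse complement) is scored by the PBM enrichment score (E-score), a modified Wilcoxon-Mann-Whitney statistic from -0.5 to +0.5, computed with the Universal PBM Analysis Suite. Scale: above 0.35 generally sequence-specific binding.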

Sequence | PBM E-score
CGCGAGTA | 0.106
CCACATTA | -0.126
ACGGAGGA | 0.0483
AACGACGG | 0.169
CCTCGGGC | 0.0197
CATTGTGA | -0.164
GATGACAA | 0.12
AGGCGCTC | -0.0822
GGCCTCAC | -0.0604
AAACTGTG | 0.0324
ATCTGCTG | -0.027
ATATGCGA | 0.0078
GCGAACAC | -0.0736
TAACTCAA | 0.0996
CCTTGCAG | -0.2
CTCCCCCA | -0.323
CCAGGGGC | -0.382
CTCACCTC | -0.0895
TGAATCCA | 0.117
CTGAACCA | -0.0303
AAAAAGTC | 0.091
AACGACAT | 0.133

Sequence | PBM E-score
AATCGTGC | 0.206
GTCCAAAA | 0.162
CAACGAGC | -0.265
AAGGCTGC | -0.0369
CTTTCAGA | 0.0778
TGCAGACA | 0.0602
GACCATGA | 0.0105
CTAGTCGA | -0.0912
ACCAGACA | 0.00548
CTATACCA | -0.0586
CGAGTCAG | 0.0484
GGACGTAC | -0.17
AGTAGTAT | 0.116
AACTTGAT | 0.277
CACTCCAG | -0.079
ACAGCAGC | -0.0621
CAGCTGAG | -0.174
ACTTACCT | -0.211
CGCCAATA | -0.0727
CGACGGCG | -0.0312
AATGCCTA | -0.0279
GAAGTAAA | 0.119

Sequence | PBM E-score
CTAGGCGC | -0.179
AGTGAGAC | -0.134
TCATGGGA | -0.0738
CGATGTTC | -0.138
GGTCCGGA | 0.376
CTATACAA | 0.0425
TAATAATA | 0.217
GAACAAGA | 0.169
GCGGCGCA | 0.0894
ATTGGTGC | 0.0123
GTTCTGAA | 0.115
CGGAGCGC | 0.107
CAGCACCA | -0.147
TAGGCTCA | -0.201
CAGATCCG | 0.317
AAATAGCC | -0.0186
CACAACTG | -0.249
GGCAGCAC | -0.134
CTTGGAAC | -0.0214
CATTATCC | 0.067
CACGGTAC | -0.0817
GCGTTCTA | -0.0208

Single values from the results shown.
PBM E-score with TAACTCAA is entered as 0.0996
PBM E-score with GTTCTGAA is entered as 0.115

The list continues.

Sequence | PBM E-score
AAAGATGG | -0.131
GAAGTATA | 0.141
GAGCATGA | -0.182
CCTGCACC | -0.177
CGGTCTAA | 0.135
CGGGCGTA | -0.13
TCTTGACA | 0.101
ACTAAGTG | 0.035
GAGGAGCA | -0.0781
ATCGTTTC | 0.119
AAAACTAG | 0.0569
GCAAAGCC | -0.298
CCAGAACA | -0.178
AACCTGGT | -0.0294
ACTAGCCT | -0.0969
ACCAGGAA | 0.00621
ACACCCCT | -0.165
CAATCTGA | -0.00836
CAGCTCAC | -0.153
CTTTGTCC | 0.0996
